Results reported in article PMC9781295.
These are yes or no findings as the source states them, for the method shown. For part of these data: Binding seen in cells or lysates may run through a third protein. Some binding calls cover weakened binding; strength is not graded here. Where a sequence is shown, tags or fusion partners need not be part of it.

Tests used:
[1] = molecular target: human glycine transporter 1b (GlyT1b), wild type, epitope-tagged (human) (UniProt P48067); assay: non-reducing SDS-PAGE and immunoblot of cell lysates; no cross-linker (spontaneously occurring dimers); HEK293 cells stably expressing FLAG-GlyT1b or mutants, total lysates in non-reducing sample buffer, anti-FLAG immunoblot; lysates with or without 100 mM DTT at 22 °C for 1 h
[2] = molecular target: human glycine transporter 1b (GlyT1b), wild type, epitope-tagged (human) (UniProt P48067); assay: co-IP; HEK293 cells co-expressing FLAG-GlyT1 and GlyT1-HA (plasmids 1:1), lysed in RIPA buffer (50 mM Tris, 5 mM EDTA, 150 mM NaCl, 1% Triton X-100, pH 7.5); anti-FLAG M2 or anti-HA agarose at 4 °C overnight; eluted with 3xFLAG or HA peptide; SDS-PAGE and immunoblot for the other tag
[3] = molecular target: human glycine transporter 1b (GlyT1b), wild type, epitope-tagged (human) (UniProt P48067); assay: cross-linking; oxidative cross-linking on intact HEK293 cells with copper phenanthroline (CuP, 1-100 μM) for 15 min at 22 °C in HEPES buffered saline, quenched with 10 mM N-ethylmaleimide; lysates in non-reducing sample buffer, anti-FLAG immunoblot; also with ZnCl2, NMDGCl, Na+, glycine, bitopertin or LY2365109 present, or 100 mM DTT on the lysates

- binding [1]: binds
- binding [2]: binds
- binding [3]: binds
B1: human glycine transporter 1b (GlyT1b), wild type, epitope-tagged (protein, UniProt P48067-3 1-652)
chain: MSGGDTRAAIARPRMAAAHGPVAPSSPEQNGAVPSEATKRDQNLKRGNWGNQIEFVLTSVGYAVGLGNVWRFPYLCYRNGGGAFMFPYFIMLIFCGIPLFFMELSFGQFASQGCLGVWRISPMFKGVGYGMMVVSTYIGIYYNVVICIAFYYFFSSMTHVLPWAYCNNPWNTHDCAGVLDASNLTNGSRPAALPSNLSHLLNHSLQRTSPSEEYWRLYVLKLSDDIGNFGEVRLPLLGCLGVSWLVVFLCLIRGVKSSGKVVYFTATFPYVVLTILFVRGVTLEGAFDGIMYYLTPQWDKILEAKVWGDAASQIFYSLGCAWGGLITMASYNKFHNNCYRDSVIISITNCATSVYAGFVIFSILGFMANHLGVDVSRVADHGPGLAFVAYPEALTLLPISPLWSLLFFFMLILLGLGTQFCLLETLVTAIVDEVGNEWILQKKTYVTLGVAVAGFLLGIPLTSQAGIYWLLLMDNYAASFSLVVISCIMCVAIMYIYGHRNYFQDIQMMLGFPPPLFFQICWRFVSPAIIFFILVFTVIQYQPITYNHYQYPGWAVAIGFLMALSSVLCIPLYAMFRLCRTDGDTLLQRLKNATKPSRDWGPALLEHRTGRYAPTIAPSPEDGFEVQPLHPDKAQIPIVGSNGSSRLQDSRI
